Source: the supplement of paper PMC9233669
This sample is rich in variants without activity.

How the values were obtained:
biotinyl-Phe-oxazolone = experiment: self-aminoacylation, catalytic enhancement (BFO) (fold over background); higher = more active; k-Seq, kA / k0A0; sequences stand for … in GGGAAUGGAUCCACAUCUACGAAUUC…UUCACUGCAGACUUGACGAAGCUG
Method in brief: (§1)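 Mutagenized RNA pools with a 21-nt variable region (0.43 μM) were reacted with each biotinyl-aminoacyl-oxazolone at 2–1250 μM for 90 minutes at room temperature, in 50 μL HEPES/NaCl/KCl/MgCl2/CaCl2 buffer containing 5% acetonitrile at pH 6.9–7.0. RNA captured on streptavidin was quantified by triplicate qPCR and by Illumina sequencing. The fraction reacted for each sequence was fit to a pseudo-first-order model with bootstrapping, and catalytic enhancement is the median kA divided by the uncatalyzed rate, taken as the low-activity peak of a bimodal Gaussian fit.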

biotinyl-Val-oxazolone = experiment: self-aminoacylation, catalytic enhancement (BVO) (fold over background); higher = more active; k-Seq, kA / k0A0; sequences stand for … in GGGAAUGGAUCCACAUCUACGAAUUC…UUCACUGCAGACUUGACGAAGCUG
Method in brief: as §1

biotinyl-Leu-oxazolone = experiment: self-aminoacylation, catalytic enhancement (BLO) (fold over background); higher = more active; k-Seq, kA / k0A0; sequences stand for … in GGGAAUGGAUCCACAUCUACGAAUUC…UUCACUGCAGACUUGACGAAGCUG
Method in brief: as §1

biotinyl-Trp-oxazolone = experiment: self-aminoacylation, catalytic enhancement (BWO) (fold over background); higher = more active; k-Seq, kA / k0A0; sequences stand for … in GGGAAUGGAUCCACAUCUACGAAUUC…UUCACUGCAGACUUGACGAAGCUG
Method in brief: as §1

biotinyl-Ile-oxazolone = experiment: self-aminoacylation, catalytic enhancement (BIO) (fold over background); higher = more active; k-Seq, kA / k0A0; sequences stand for … in GGGAAUGGAUCCACAUCUACGAAUUC…UUCACUGCAGACUUGACGAAGCUG
Method in brief: as §1

biotinyl-Met-oxazolone = experiment: self-aminoacylation, catalytic enhancement (BMO) (fold over background); higher = more active; k-Seq, kA / k0A0; sequences stand for … in GGGAAUGGAUCCACAUCUACGAAUUC…UUCACUGCAGACUUGACGAAGCUG
Method in brief: as §1

| Sequence | self-aminoacylation (biotinyl-Phe-oxazolone) | self-aminoacylation (biotinyl-Val-oxazolone) | self-aminoacylation (biotinyl-Leu-oxazolone) | self-aminoacylation (biotinyl-Trp-oxazolone) | self-aminoacylation (biotinyl-Ile-oxazolone) | self-aminoacylation (biotinyl-Met-oxazolone) |
| --- | --- | --- | --- | --- | --- | --- |
| AUUACCCUAGUCAUCGAGCGA [Fam2.1 aminoacylation ribozyme variant] | 0.894 | 1.32 | 1.2 | 1.21 | 1.3 | 1.38 |
| AUUACCCUAGUCAUCGUGUGA [Fam2.1 aminoacylation ribozyme variant] | 5.35 | 1.29 | 2.17 | 2.89 | 1.25 | 2.4 |
| AUUACCCUGAUCACCGAGUGA [Fam2.1 aminoacylation ribozyme variant] | 42.1 | 3.74 | 7.42 | 6.75 | 3.08 | 7.33 |
| AUUACCCUGCUCAUCGAUUGA [Fam2.1 aminoacylation ribozyme variant] | 0.728 | 0.785 | 1.01 | 0.652 | 0.821 | 0.829 |
| AUUACCCUGCUCCUCGAGUGA [Fam2.1 aminoacylation ribozyme variant] | 1.31 | 1.12 | 1.69 | 1.65 | 1.08 | 1.62 |
| AUUACCCUGGACGUCGAGUGA [Fam2.1 aminoacylation ribozyme variant] | 0.734 | 0.826 | 0.911 | 0.545 | 0.737 | 1.02 |
| AUUACCCUGGCCAUAGAGUGA [Fam2.1 aminoacylation ribozyme variant] | 5.34 | 2.51 | 4.73 | 6.32 | 2.6 | 4.15 |
| AUUACCCUGGCCAUCGAGAGA [Fam2.1 aminoacylation ribozyme variant] | 0.439 | 1.01 | 0.919 | 0.803 | 0.69 | 1.02 |
| AUUACCCUGGGCAUCGAGGGA [Fam2.1 aminoacylation ribozyme variant] | 0.92 | 1.51 | 1.72 | 1.54 | 1.26 | 1.53 |
| AUUACCCUGGUAAUCGAGCGA [Fam2.1 aminoacylation ribozyme variant] | 1.15 | 1.25 | 1.75 | 1.01 | 0.97 | 1.77 |
| AUUACCCUGGUAGUCGAGUGA [Fam2.1 aminoacylation ribozyme variant] | 1.7 | 1.4 | 1.46 | 1.84 | 1.29 | 1.72 |
| AUUACCCUGGUCACCAAGUGA [Fam2.1 aminoacylation ribozyme variant] | 34.3 | 3.32 | 6.54 | 7.7 | 3.47 | 6.45 |
| AUUACCCUGGUCACCGAGAGA [Fam2.1 aminoacylation ribozyme variant] | 0.956 | 0.905 | 0.663 | 0.85 | 1.06 | 1.1 |
| AUUACCCUGGUCAGCGAGUUA [Fam2.1 aminoacylation ribozyme variant] | 0.968 | 1.21 | 1.14 | 1.09 | 1.14 | 0.988 |
| AUUACCCUGGUCAUAGAAUGA [Fam2.1 aminoacylation ribozyme variant] | 1.15 | 0.773 | 0.883 | 0.465 | 0.846 | 0.804 |
| AUUACCCUGGUCAUAGAGGGA [Fam2.1 aminoacylation ribozyme variant] | 1.17 | 1.33 | 1.63 | 0.547 | 1.26 | 1.35 |
| AUUACCCUGGUCAUCAAGCGA [Fam2.1 aminoacylation ribozyme variant] | 0.84 | 1.13 | 0.895 | 0.661 | 0.846 | 1 |
| AUUACCCUGGUCAUCGAGACA [Fam2.1 aminoacylation ribozyme variant] | 1.92 | 1.19 | 1.21 | 0.531 | 0.999 | 1.11 |
| AUUACCCUGGUCAUCGAGCUA [Fam2.1 aminoacylation ribozyme variant] | 1.85 | 1.27 | 1.35 | 1.05 | 1.35 | 1.59 |
| AUUACCCUGGUCAUCGAGUCG [Fam2.1 aminoacylation ribozyme variant] | 0.759 | 0.976 | 0.794 | 0.725 | 0.765 | 0.797 |
| AUUACCCUGGUCAUCGUGUUA [Fam2.1 aminoacylation ribozyme variant] | 0.945 | 0.992 | 0.682 | 0.622 | 1.05 | 0.959 |
| AUUACCCUGGUCAUCUAGUGA [Fam2.1 aminoacylation ribozyme variant] | 42.9 | 4.83 | 9.15 | 11.3 | 4.51 | 9.61 |
| AUUACCCUGGUCAUCUAGUUA [Fam2.1 aminoacylation ribozyme variant] | 0.757 | 0.874 | 0.762 | 1.93 | 0.964 | 0.914 |
| AUUACCCUGGUCAUGGAGUUA [Fam2.1 aminoacylation ribozyme variant] | 0.664 | 1.13 | 0.899 | 0.695 | 1.04 | 1.23 |
| AUUACCCUGGUCAUUGAGUAA [Fam2.1 aminoacylation ribozyme variant] | 1.16 | 0.941 | 1.29 | 2.02 | 1.2 | 1.21 |
| AUUACCCUGGUCCUCGAUUGA [Fam2.1 aminoacylation ribozyme variant] | 0.457 | 1.05 | 0.909 | 0.403 | 0.762 | 0.64 |
